# Literature values, collected in patent US6630178B1, “Composition comprising soy protein, dietary fibres and a phytoestrogen compound and use thereof in the prevention and/or treatment of cardiovascular diseases” (Nutri Pharma Asa, priority 1998, dated 2003).
# For at least one compound, name, drawing or mass did not settle the structure.
# System: estrogenic effect
# Conditions: estradiol = 100; in vitro
smiles,measurement,value
C[C@]12CC[C@@H]3c4ccc(O)cc4CC[C@H]3[C@@H]1CC[C@@H]2O [estradiol],relative estrogenic potency as compared to estradiol,100
